No constants are given. Whether binding was seen depends on the method and setting. In cells and extracts the contact can be indirect. Sequences can lack the tags named with a protein.
Biological target: Ku70
Test: co-IP; Myc-tagged TBK1 constructs coexpressed with V5-tagged adaptors in HEK293 cells; Frackelton buffer (10 mM Tris/HCl pH 7.5, 50 mM NaCl, 1% Triton X-100); anti-Myc agarose or anti-V5 agarose, 2 h at 4°C; immunoblotting with anti-Myc and anti-V5

- binding: no binding
B1: V5-tagged TANK (protein, UniProt P70347 1-448)
chain: MSLKRHSLRRNACHLETRAGIPTILYSDATGQRGMDKNIGEQLNRAYEAFRQACMDRDSAVRELQQKQTENYEQRIREQQEQLSFQQNLIDRLKSQLLLVDSSRDNSYGYVPLLEDSDRRKNNLTLDEPHDKVKLGTLRDKQSKVRRQEVSSGKESAKGLNIPLHHERDNIEKTFWDLKEEFHRICLLAKAQKDHLSKLNIPDIATDTQCSVPIQCTDKTEKQEALFKPQAKDDINRGMSCVTAVTPRGLGRDEEDTSFESLSKFNVKFPPMDNDSIFLHSTPEAPSILAPATPETVCQDRFNMEVRDNPGNFVKTEETLFEIQGIDPITSAIQNLKTTDKTNPSNLRATCLPAGDHNVFYVNTFPLQDPPDAPFPSLDSPGKAVRGPQQPFWKPFLNQDTDLVVPSDSDSELLKPLVCEFCQELFPPSITSRGDFLRHLNTHFNGET

From article PMC3169550
